This note sets out measurements from article PMC3834829.

Protein sequences, listed by entry. Tags and fused reporters are not part of them. Lines headed by an entry give the natural chain unless they say otherwise; changes in a name come on top. Residues count along the entry.
UniProt Q9Y466: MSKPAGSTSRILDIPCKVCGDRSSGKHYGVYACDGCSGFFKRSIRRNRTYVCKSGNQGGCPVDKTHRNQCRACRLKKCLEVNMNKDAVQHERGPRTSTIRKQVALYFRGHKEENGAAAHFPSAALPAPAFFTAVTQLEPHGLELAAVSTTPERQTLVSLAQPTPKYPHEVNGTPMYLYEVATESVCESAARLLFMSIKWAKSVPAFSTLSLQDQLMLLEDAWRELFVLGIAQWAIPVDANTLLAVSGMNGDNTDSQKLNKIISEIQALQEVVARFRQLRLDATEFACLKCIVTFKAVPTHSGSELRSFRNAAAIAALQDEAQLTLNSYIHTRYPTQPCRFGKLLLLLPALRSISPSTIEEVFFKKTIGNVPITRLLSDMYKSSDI
UniProt Q9H165: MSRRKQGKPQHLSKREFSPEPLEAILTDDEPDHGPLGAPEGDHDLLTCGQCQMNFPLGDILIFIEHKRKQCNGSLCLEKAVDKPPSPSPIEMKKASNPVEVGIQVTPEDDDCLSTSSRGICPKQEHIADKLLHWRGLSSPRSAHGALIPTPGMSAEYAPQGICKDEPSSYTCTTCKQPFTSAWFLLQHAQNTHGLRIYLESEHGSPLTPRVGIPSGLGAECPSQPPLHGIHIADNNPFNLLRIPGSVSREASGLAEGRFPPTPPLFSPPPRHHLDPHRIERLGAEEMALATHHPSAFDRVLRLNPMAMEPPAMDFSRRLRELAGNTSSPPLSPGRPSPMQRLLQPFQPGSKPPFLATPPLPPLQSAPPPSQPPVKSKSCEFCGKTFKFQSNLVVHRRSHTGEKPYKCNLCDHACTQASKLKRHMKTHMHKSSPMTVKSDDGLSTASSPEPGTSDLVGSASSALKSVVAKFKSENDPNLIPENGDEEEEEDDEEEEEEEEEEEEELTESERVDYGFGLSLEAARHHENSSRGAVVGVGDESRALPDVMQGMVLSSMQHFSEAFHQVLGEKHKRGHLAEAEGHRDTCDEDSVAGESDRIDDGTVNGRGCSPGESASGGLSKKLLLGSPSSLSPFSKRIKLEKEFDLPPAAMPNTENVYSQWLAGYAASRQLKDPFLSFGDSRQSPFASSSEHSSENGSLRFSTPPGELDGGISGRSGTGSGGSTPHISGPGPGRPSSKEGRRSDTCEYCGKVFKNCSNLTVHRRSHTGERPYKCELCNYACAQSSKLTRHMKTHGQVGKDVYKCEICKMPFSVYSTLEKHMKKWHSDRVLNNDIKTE
UniProt Q9Y5X4, 89-410: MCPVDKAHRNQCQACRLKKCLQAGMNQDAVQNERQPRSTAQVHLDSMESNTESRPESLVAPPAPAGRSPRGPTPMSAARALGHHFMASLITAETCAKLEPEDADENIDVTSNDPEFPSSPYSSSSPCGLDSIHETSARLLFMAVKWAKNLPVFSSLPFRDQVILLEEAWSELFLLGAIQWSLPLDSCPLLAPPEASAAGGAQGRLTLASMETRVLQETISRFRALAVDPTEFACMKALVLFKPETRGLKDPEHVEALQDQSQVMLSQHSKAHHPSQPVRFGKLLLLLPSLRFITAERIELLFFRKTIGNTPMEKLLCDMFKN

Holding throughout (test): EMSA
In general terms: Mobility shift assays separate free from complexed probe on a gel.

In one data set the target is T1, COUP-TFII (UniProt P24468).
T1 sequence (looked up, limits assumed): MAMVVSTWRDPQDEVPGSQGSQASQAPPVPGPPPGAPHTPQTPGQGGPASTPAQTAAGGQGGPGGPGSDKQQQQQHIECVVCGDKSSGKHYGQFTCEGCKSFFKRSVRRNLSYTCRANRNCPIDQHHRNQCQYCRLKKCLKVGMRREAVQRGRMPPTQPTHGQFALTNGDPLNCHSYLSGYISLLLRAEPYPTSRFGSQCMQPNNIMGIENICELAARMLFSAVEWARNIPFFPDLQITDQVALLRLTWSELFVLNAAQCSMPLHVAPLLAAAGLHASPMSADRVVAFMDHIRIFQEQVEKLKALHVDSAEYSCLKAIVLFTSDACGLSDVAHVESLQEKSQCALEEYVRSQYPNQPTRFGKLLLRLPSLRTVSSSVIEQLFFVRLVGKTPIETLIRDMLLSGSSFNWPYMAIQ
Conditions: 20 mM HEPES-KOH pH 7.9, 12% glycerol, 50 mM KCl, 1 mM DTT, 1 ug poly(dI:dC), 3 ug BSA, 10 ul, room temperature 20 min, 5% PAGE, 0.5x TBE, protein in an extract, protein details: untagged (pTL1-COUP-TFII), label: 5'-32P.

The next data set concerns the target TLX (UniProt Q9Y466). Conditions: no strong binding; 20 mM HEPES-KOH pH 7.9, 12% glycerol, 50 mM KCl, 1 mM DTT, 1 ug poly(dI:dC), 3 ug BSA, 10 ul, room temperature 20 min; 5% PAGE, 0.5x TBE; protein in an extract; protein details: HA; label: 5'-32P.
The target of another data set is BCL11A-XL (UniProt Q9H165). To be noted: diffuse shifts at high concentration; 20 mM HEPES-KOH pH 7.9, 12% glycerol, 50 mM KCl, 1 mM DTT, 1 ug poly(dI:dC), 3 ug BSA, 10 ul, room temperature 20 min; 5% PAGE, 0.5x TBE; protein in an extract; protein details: FLAG; label: 5'-32P.
Another data set addresses PNR (UniProt Q9Y5X4). To be noted: no strong binding; 20 mM HEPES-KOH pH 7.9, 12% glycerol, 50 mM KCl, 1 mM DTT, 1 ug poly(dI:dC), 3 ug BSA, 10 ul, room temperature 20 min; 5% PAGE, 0.5x TBE; protein in an extract; residues 89-410; protein details: HA; label: 5'-32P.
[1] abbreviates: half-site mutations disrupt complex.

Construct, isoform or probe ends are uncertain for at least one entry. At least one result comes from cells or an extract, where the contact may be indirect. For some assays here: Negatives hold for the conditions tested. For some assays here: Where a protein sequence is shown, tags need not be part of it. For some assays here: The comparison behind a weaker result is the experiment's own reference, which may not be listed here. For some assays here: At least one verdict rests on a figure or table, not on a statement of the authors.

For “TTCCGTGGCCCGAACTGGAAATTAGGAAATTTGTGTCTGAAACAGGCTTGATCTATA (double strand) [Bgl3 739-795mut (+198/+255 mutant)]”, in the data set with COUP-TFII (setting [1]), the binding result is “no binding”.
In the case of “GGTGATGTCAGACTAGTTGGGTCATTTG (double strand) [RARbeta2 COUP-TFII RE (DR8)]”, in the data set with COUP-TFII, the binding result is “binds”.
Consider “GACTGGCCTCAGAGGAAACTTCAGGTCATGTC (double strand) [Bgl3 128-151 (+812/+843)]”, for which the binding result with TLX is “binds more weakly”; in the data set with BCL11A-XL it was “binds more weakly”; with PNR it was “binds more weakly”; with COUP-TFII, “binds”.
Consider “TTCCGTGGCCCGTGCTGGGCATTAGGTCATTT (double strand) [Bgl3 739-763 (+198/+231)]”, for which the binding result with TLX is “binds more weakly”; in the data set with BCL11A-XL it was “binds more weakly”; with PNR, “binds more weakly”; with COUP-TFII, “binds”.
As to “GACTGGCCAAAGAGGAAACTTCAGGAAATGTCCTTTAATGGCCCTAAAACTCATTC (double strand) [Bgl3 128-182mut (+812/+867 mutant)]”, the binding result with COUP-TFII (setting [1]) was “no binding”.
